Experimental data from the supplement of paper PMC8728848.
This is one part of the list.

Key:
Test in all cases: glycan array binding signal (z-score within array); higher = stronger binding
Conditions in all cases: glycan notation: IUPAC condensed, linker removed
[1] = target: Neu5Ac(a2-3)Gal(b1-4)GlcNAc(b1-2)[Neu5Ac(a2-3)Gal(b1-4)GlcNAc(b1-4)]Man(a1-3)[GlcNAc(b1-4)][Neu5Ac(a2-3)Gal(b1-4)GlcNAc(b1-4)Man(a1-6)]Man(b1-4)GlcNAc(b1-4)GlcNAc
In short: (§1)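 Glycan array data came from 3228 arrays in the Consortium for Functional Glycomics database, and only arrays with an available protein sequence were kept. Glycan names were put into IUPAC-condensed notation, and columns mapping to the same glycan were averaged. The binding signal is a within-array Z-score, averaged across arrays of one protein sequence run at different concentrations or buffers and across linkers. A negative Z-score can be read as non-binding.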

[2] = target: Neu5Ac(a2-3)Gal(b1-4)GlcNAc(b1-2)[Neu5Ac(a2-3)Gal(b1-4)GlcNAc(b1-6)]Man(a1-6)[Neu5Ac(a2-3)Gal(b1-4)GlcNAc(b1-2)Man(a1-3)]Man(b1-4)GlcNAc(b1-4)GlcNAc
In short: as §1

[3] = target: Neu5Ac(a2-3)Gal(b1-4)GlcNAc(b1-2)[Neu5Ac(a2-3)Gal(b1-4)GlcNAc(b1-6)]Man(a1-6)[Neu5Ac(a2-3)Gal(b1-4)GlcNAc(b1-2)Man(a1-3)][GlcNAc(b1-4)]Man(b1-4)GlcNAc(b1-4)GlcNAc
In short: as §1

[4] = target: Neu5Ac(a2-3)Gal(b1-4)GlcNAc(b1-3)Gal
In short: as §1

[5] = target: Neu5Ac(a2-3)Gal(b1-4)GlcNAc(b1-3)Gal(b1-3)GlcNAc
In short: as §1

[6] = target: Neu5Ac(a2-3)Gal(b1-4)GlcNAc(b1-3)Gal(b1-4)GlcNAc
In short: as §1

[7] = target: Neu5Ac(a2-3)Gal(b1-4)GlcNAc(b1-3)Gal(b1-4)GlcNAc(b1-2)Man(a1-3)[Neu5Ac(a2-3)Gal(b1-4)GlcNAc(b1-3)Gal(b1-4)GlcNAc(b1-2)Man(a1-6)]Man(b1-4)GlcNAc(b1-4)GlcNAc
In short: as §1

[8] = target: Neu5Ac(a2-3)Gal(b1-4)GlcNAc(b1-3)Gal(b1-4)GlcNAc(b1-3)Gal(b1-4)GlcNAc
In short: as §1

[9] = target: Neu5Ac(a2-3)Gal(b1-4)GlcNAc(b1-3)Gal(b1-4)GlcNAc(b1-3)Gal(b1-4)GlcNAc(b1-2)Man(a1-3)[Neu5Ac(a2-3)Gal(b1-4)GlcNAc(b1-3)Gal(b1-4)GlcNAc(b1-3)Gal(b1-4)GlcNAc(b1-2)Man(a1-6)]GalNAc
In short: as §1

[10] = target: Neu5Ac(a2-3)Gal(b1-4)GlcNAc(b1-3)Gal(b1-4)GlcNAc(b1-3)GalNAc
In short: as §1

[11] = target: Neu5Ac(a2-3)Gal(b1-4)GlcNAc(b1-3)Gal(b1-4)GlcNAc(b1-3)[Neu5Ac(a2-3)Gal(b1-4)GlcNAc(b1-3)Gal(b1-4)GlcNAc(b1-6)]GalNAc
In short: as §1

[12] = target: Neu5Ac(a2-3)Gal(b1-4)GlcNAc(b1-3)Gal(b1-4)GlcNAc(b1-6)[Gal(b1-3)]GalNAc
In short: as §1

[13] = target: Neu5Ac(a2-3)Gal(b1-4)GlcNAc(b1-3)Gal(b1-4)[Fuc(a1-3)]GlcNAc
In short: as §1

[14] = target: Neu5Ac(a2-3)Gal(b1-4)GlcNAc(b1-3)GalNAc
In short: as §1

[15] = target: Neu5Ac(a2-3)Gal(b1-4)GlcNAc(b1-3)[Neu5Ac(a2-3)Gal(b1-4)GlcNAc(b1-6)]GalNAc
In short: as §1

[16] = target: Neu5Ac(a2-3)Gal(b1-4)GlcNAc(b1-6)GalNAc
In short: as §1

[17] = target: Neu5Ac(a2-3)Gal(b1-4)GlcNAc(b1-6)[Gal(b1-3)]GalNAc
In short: as §1

[18] = target: Neu5Ac(a2-3)Gal(b1-4)GlcNAc(b1-6)[Neu5Ac(a2-3)Gal(b1-3)]GalNAc
In short: as §1

[19] = target: Neu5Ac(a2-3)Gal(b1-4)GlcNAc6S
In short: as §1

[20] = target: Neu5Ac(a2-3)Gal(b1-4)[Fuc(a1-3)]GlcNAc
In short: as §1

[21] = target: Neu5Ac(a2-3)Gal(b1-4)[Fuc(a1-3)]GlcNAc(b1-2)Man
In short: as §1

[22] = target: Neu5Ac(a2-3)Gal(b1-4)[Fuc(a1-3)]GlcNAc(b1-3)Gal
In short: as §1

[23] = target: Neu5Ac(a2-3)Gal(b1-4)[Fuc(a1-3)]GlcNAc(b1-3)Gal(b1-4)GlcNAc
In short: as §1

[24] = target: Neu5Ac(a2-3)Gal(b1-4)[Fuc(a1-3)]GlcNAc(b1-3)Gal(b1-4)[Fuc(a1-3)]GlcNAc(b1-3)Gal(b1-4)[Fuc(a1-3)]GlcNAc
In short: as §1

[25] = target: Neu5Ac(a2-3)Gal(b1-4)[Fuc(a1-3)]GlcNAc(b1-3)GalNAc
In short: as §1

[26] = target: Neu5Ac(a2-3)Gal(b1-4)[Fuc(a1-3)]GlcNAc(b1-6)[Gal(b1-3)]GalNAc
In short: as §1

[27] = target: Neu5Ac(a2-3)Gal(b1-4)[Fuc(a1-3)]GlcNAc(b1-6)[Neu5Ac(a2-3)Gal(b1-3)]GalNAc
In short: as §1

[28] = target: Neu5Ac(a2-3)Gal(b1-4)[Fuc(a1-3)]GlcNAc6S
In short: as §1

[29] = target: Neu5Ac(a2-3)Gal6S(b1-4)GlcNAc
In short: as §1

[30] = target: Neu5Ac(a2-3)Gal6S(b1-4)[Fuc(a1-3)]GlcNAc
In short: as §1

Neu5Ac(a2-3)GalNAc = target: Neu5Ac(a2-3)GalNAc
In short: as §1

[31] = target: Neu5Ac(a2-3)GalNAc(b1-4)GlcNAc
In short: as §1

[32] = target: Neu5Ac(a2-3)[GalNAc(b1-4)]Gal(b1-4)Glc
In short: as §1

[33] = target: Neu5Ac(a2-3)[GalNAc(b1-4)]Gal(b1-4)GlcNAc
In short: as §1

[34] = target: Neu5Ac(a2-3)[GalNAc(b1-4)]Gal(b1-4)GlcNAc(b1-3)GalNAc
In short: as §1

[35] = target: Neu5Ac(a2-3)[Neu5Ac(a2-6)]GalNAc
In short: as §1

Neu5Ac(a2-6)Gal = target: Neu5Ac(a2-6)Gal
In short: as §1

B1: PX14375A-pdi-503-28-503 (Parabacteroides distasonis) (protein)
chain: PLGSPEAGDISEERQAFLRLTAVYSVMKDFRYTWSMQCFGDVLSNDATYSGSSNDAQTFTLLENYQYQADHTEILNKYRYSYQCINKANLFIRDMEMADDALFSKYDKEQMIGEAKFIRAYTYFELVKTFGGVPCYTGVLDLDHERLGRASVEEIYSVIEQDLNDAVSVLPKKSEVANYESSYAGRITKGAAIAMQTRIYLYEKKYDEVKKAFEKFQNECGGEYSLVAPEDYTWQFSLDGEHCSSSILEVNMYNSSTQSSYNVNNGNRHVLMSMPRNMTIGFGCAQPTQALADAYDAEGDVIRKKTTLLSTEEAIEIETAAKGDVAPVTDDRTGWYNRKLYLAPGQREENRGNNQPTNLRLIRLAEVYLNYAEACYFSGDIANAQKYLNEVRSHVNLAPKNHTGSQLFEDIMNERHLEFGMEGFRFFDVVRVGWGEKVFNGTKKAEFGAKTPFSAGAEVLPIPQTEIDISDGLITN
Which “glycan array binding signal (z-score)” value [1] does the source give for B1 here?
The value was 0.558.

And the “glycan array binding signal (z-score)” value [2]?
Its value is -0.587.

What about the “glycan array binding signal (z-score)” value [3] of the same binder?
The value was 0.219.

What about the “glycan array binding signal (z-score)” value [4] of the same binder?
Its value is -0.008.

And the “glycan array binding signal (z-score)” value [5]?
Its value is -0.225.

And the “glycan array binding signal (z-score)” value [6]?
The value was 0.104.

What about the “glycan array binding signal (z-score)” value [7] of the same binder?
The value was -0.227.

What about the “glycan array binding signal (z-score)” value [8] of the same binder?
The value was -0.259.

And the “glycan array binding signal (z-score)” value [9]?
Its value is 1.01.

What about the “glycan array binding signal (z-score)” value [10] of the same binder?
Its value is -0.442.

What about the “glycan array binding signal (z-score)” value [11] of the same binder?
The value was -0.036.

What about the “glycan array binding signal (z-score)” value [12] of the same binder?
The value was 0.005.

And the “glycan array binding signal (z-score)” value [13]?
The value was 0.01.

What about the “glycan array binding signal (z-score)” value [14] of the same binder?
Its value is -0.578.

What about the “glycan array binding signal (z-score)” value [15] of the same binder?
The value was -0.565.

And the “glycan array binding signal (z-score)” value [16]?
The value was -0.486.

What about the “glycan array binding signal (z-score)” value [17] of the same binder?
The value was -0.492.

And the “glycan array binding signal (z-score)” value [18]?
Its value is -0.357.

What about the “glycan array binding signal (z-score)” value [19] of the same binder?
Its value is -0.628.

And the “glycan array binding signal (z-score)” value [20]?
Its value is -0.22.

What about the “glycan array binding signal (z-score)” value [21] of the same binder?
Its value is -0.567.

And the “glycan array binding signal (z-score)” value [22]?
Its value is -1.

And the “glycan array binding signal (z-score)” value [23]?
Its value is 0.15.

What about the “glycan array binding signal (z-score)” value [24] of the same binder?
Its value is -0.254.

What about the “glycan array binding signal (z-score)” value [25] of the same binder?
The value was 0.723.

And the “glycan array binding signal (z-score)” value [26]?
Its value is -0.136.

And the “glycan array binding signal (z-score)” value [27]?
The value was 1.22.

And the “glycan array binding signal (z-score)” value [28]?
Its value is -0.805.

What about the “glycan array binding signal (z-score)” value [29] of the same binder?
The value was -0.371.

And the “glycan array binding signal (z-score)” value [30]?
Its value is -0.444.

What about the “glycan array binding signal (z-score)” value (Neu5Ac(a2-3)GalNAc) of the same binder?
Its value is -0.004.

What about the “glycan array binding signal (z-score)” value [31] of the same binder?
The value was -0.35.

What about the “glycan array binding signal (z-score)” value [32] of the same binder?
Its value is -0.559.

And the “glycan array binding signal (z-score)” value [33]?
Its value is -0.748.

And the “glycan array binding signal (z-score)” value [34]?
Its value is -1.13.

What about the “glycan array binding signal (z-score)” value [35] of the same binder?
Its value is 0.006.

What about the “glycan array binding signal (z-score)” value (Neu5Ac(a2-6)Gal) of the same binder?
Its value is -0.64.
